Source: article PMC5431654
These are yes or no findings as the source states them, for the method shown. Binding seen in cells or lysates may run through a third protein. Here binding means that the protein was enriched with, or labelled near, the bait; the list need not be complete.

Amino acid sequences for entries named in this document (tags omitted). A change or cut given only in a name is not applied to a line headed by its entry. Chains listed by the source or under a name are the forms on record and can include a tag or linker. Residues count along the entry.
UniProt P67775: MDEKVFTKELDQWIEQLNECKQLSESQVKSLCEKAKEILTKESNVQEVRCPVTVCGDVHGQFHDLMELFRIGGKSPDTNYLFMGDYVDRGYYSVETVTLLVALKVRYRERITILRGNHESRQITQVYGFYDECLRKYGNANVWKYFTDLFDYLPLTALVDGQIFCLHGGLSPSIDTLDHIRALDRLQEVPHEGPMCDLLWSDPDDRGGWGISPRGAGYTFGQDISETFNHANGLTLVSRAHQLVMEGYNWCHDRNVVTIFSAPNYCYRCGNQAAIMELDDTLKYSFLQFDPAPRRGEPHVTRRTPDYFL
UniProt P52732: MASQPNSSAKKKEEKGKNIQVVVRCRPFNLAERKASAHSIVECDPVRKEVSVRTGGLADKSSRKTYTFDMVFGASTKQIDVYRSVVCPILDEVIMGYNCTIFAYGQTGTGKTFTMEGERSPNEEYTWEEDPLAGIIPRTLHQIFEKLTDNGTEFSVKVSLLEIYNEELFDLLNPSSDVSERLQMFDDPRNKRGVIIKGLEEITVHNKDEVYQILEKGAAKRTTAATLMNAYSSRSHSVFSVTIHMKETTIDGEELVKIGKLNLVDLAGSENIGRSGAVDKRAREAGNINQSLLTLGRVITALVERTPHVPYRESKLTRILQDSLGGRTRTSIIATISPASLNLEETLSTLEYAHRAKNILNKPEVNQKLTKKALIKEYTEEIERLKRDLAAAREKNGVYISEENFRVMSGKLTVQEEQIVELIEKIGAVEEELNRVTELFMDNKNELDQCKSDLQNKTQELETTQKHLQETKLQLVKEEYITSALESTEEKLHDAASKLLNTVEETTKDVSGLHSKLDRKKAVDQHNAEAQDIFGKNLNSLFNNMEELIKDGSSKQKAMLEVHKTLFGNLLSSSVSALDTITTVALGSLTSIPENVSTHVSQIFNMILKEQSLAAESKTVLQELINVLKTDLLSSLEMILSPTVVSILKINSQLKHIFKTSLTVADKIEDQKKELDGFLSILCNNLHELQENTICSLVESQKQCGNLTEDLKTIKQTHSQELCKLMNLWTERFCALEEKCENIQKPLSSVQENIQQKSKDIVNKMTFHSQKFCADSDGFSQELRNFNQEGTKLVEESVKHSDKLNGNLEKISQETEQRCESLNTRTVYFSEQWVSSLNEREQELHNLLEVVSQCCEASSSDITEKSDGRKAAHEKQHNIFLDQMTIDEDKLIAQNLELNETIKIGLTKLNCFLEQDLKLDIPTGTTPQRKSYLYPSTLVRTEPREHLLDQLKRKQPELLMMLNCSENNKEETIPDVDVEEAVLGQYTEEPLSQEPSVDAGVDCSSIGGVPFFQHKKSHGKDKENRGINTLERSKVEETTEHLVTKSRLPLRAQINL
FLAG-tagged EG5 fragment Tail-2 (751~1057aa): residues 751-1056 of P52732
UniProt P63151: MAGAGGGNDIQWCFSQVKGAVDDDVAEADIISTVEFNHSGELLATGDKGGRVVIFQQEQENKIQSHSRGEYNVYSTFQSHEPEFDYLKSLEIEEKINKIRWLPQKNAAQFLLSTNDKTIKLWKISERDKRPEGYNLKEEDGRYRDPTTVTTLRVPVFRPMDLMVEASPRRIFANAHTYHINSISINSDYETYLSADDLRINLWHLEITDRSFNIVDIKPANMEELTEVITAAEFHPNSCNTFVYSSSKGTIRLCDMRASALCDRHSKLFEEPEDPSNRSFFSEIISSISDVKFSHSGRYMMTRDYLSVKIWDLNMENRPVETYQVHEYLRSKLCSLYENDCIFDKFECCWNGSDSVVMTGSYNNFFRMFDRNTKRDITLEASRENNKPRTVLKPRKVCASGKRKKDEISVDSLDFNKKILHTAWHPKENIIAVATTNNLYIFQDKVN

What was measured:
[1] = molecular target: FLAG-tagged PP2A/Cα (human) (UniProt P67775); experiment: affinity purification with mass spectrometry; HeLa cells overexpressing FLAG-PP2A/Cα, blocked at metaphase with Nocodazole; lysate on anti-FLAG beads, FLAG peptide elution, SDS-PAGE, silver staining, band sequenced by mass spectrometry (Mascot)
[2] = molecular target: FLAG-tagged EG5 fragment Tail-2 (751~1057aa) (human) (UniProt P52732); experiment: affinity purification with mass spectrometry; Flag pull-down from HEK293 cells expressing Flag-tagged Tail2; band around 55 kD identified by mass spectroscopy

| Substance | binding [1] | binding [2] |
| --- | --- | --- |
| endogenous EG5 (KIF11) (from UniProt P52732 1-1056) | binds |  |
| endogenous PP2A/B55α (from UniProt P63151 1-447) |  | binds |
